Reference: PubChem BioAssay AID488837 (National Center for Advancing Translational Sciences (NCATS), 2010)
The whole screen tested about 330,000 compounds, of which about 20 (0.006%) were called active. This list was built around the results that the source calls inconclusive (neither active nor inactive); the mix of calls is not that of the screen. The call rests on the fitted dose curve; in most records, active means well fitted inhibition curve with a large enough effect; inconclusive means small, poorly fitted or top-dose-only effect, or effect the other way; inactive means flat fitted curve, though single readings scatter. A potency beside an inconclusive call is a rough fit, not a confirmed value.
On the % scale 0 is the no-effect control and ±100 the full control effect; potency means the concentration at half of the fitted maximal effect.

By UniProt entry, the sequences of proteins in these tests, tags left out. Where a name states a change or a piece, a line headed by the entry shows the natural chain unless it says otherwise.
UniProt O00167: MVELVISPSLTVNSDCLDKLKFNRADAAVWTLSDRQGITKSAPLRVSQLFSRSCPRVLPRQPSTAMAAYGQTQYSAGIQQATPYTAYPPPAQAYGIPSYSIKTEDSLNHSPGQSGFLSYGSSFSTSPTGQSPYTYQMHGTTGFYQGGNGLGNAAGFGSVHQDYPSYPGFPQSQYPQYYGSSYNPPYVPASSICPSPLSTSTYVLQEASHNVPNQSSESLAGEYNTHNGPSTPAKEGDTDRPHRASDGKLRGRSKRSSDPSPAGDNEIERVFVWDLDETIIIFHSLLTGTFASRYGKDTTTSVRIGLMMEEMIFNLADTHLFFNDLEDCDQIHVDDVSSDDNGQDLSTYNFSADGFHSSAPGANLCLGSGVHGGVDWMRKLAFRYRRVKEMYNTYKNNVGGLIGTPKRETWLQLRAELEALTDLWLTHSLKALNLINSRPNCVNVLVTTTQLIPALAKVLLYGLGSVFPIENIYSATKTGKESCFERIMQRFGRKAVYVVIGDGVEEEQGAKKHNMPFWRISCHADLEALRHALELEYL

What follows are compounds tested against Protein phosphatase EYA2 (Homo sapiens) (UniProt O00167) (assay: qHTS Assay for Inhibitors of the Phosphatase Activity of Eya2). Settings: recombinant Eya2, OMFP fluorescence dephosphorylation (OMFP is methylfluorescein phosphate); activity, negative = inhibition: at 76.9 µM (top of the series) unless noted.
How it was run: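 Eya2 (0.2 uM) preincubated 10 min at ambient with compound, then OMFP substrate added at 50 uM; 10 min reaction in 50 mM HEPES pH 7.5, 50 mM NaCl, 5 uM MgCl2, 0.05% BSA, 1 mM DTT. Fluorescence read at Ex 485/Em 525 nm.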
With `CNC(=S)N1CCN(c2nc(-c3ccc(Cl)cc3)cs2)CC1` the Potency was inconclusive: 22.4 µM [inhibitor, single point].
`Cc1ccc(NC(=O)C2CC(=O)N/C(=N/N=C/c3ccco3)S2)cc1C` (stereo not given) was tested, and the “activity, negative = inhibition” value was inactive: -5.86%.
With `CN1CCCCc2c1nc1c(c2N)CCCC1` the “activity, negative = inhibition” value was inactive: 11.8%.
`COc1ccc(S(=O)(=O)Nc2cc([N+](=O)[O-])ccc2OC)cc1` was tested, and the “activity, negative = inhibition” value was inactive: 5.14%.
With `Cc1ccc(C2(c3noc(CN(C)CC4COCCO4)n3)CCCC2)cc1` (stereo not given) the Potency was inconclusive: 17.8 µM [inhibitor, single point].
`Cc1ccccc1N(C(=O)Cn1nnc(-c2ccc(F)cc2)n1)C(C(=O)NC(C)(C)C)c1ccncc1` (stereo not given) was tested, and the “activity, negative = inhibition” value was inactive: -1.68%.
With `N#Cc1c(-c2ccc(F)cc2)cc(-c2ccccc2)nc1SCC(=O)NCC(=O)O` the Potency was inconclusive: 100 µM [inhibitor, single point].
`Nc1nc(Nc2cccc(F)c2)nc(N2CCOCC2)c1[N+](=O)[O-]` was tested, and the Potency was inconclusive: 100 µM [inhibitor, single point].
With `CC(=O)Nc1nc2ccc(-c3nc4ccccc4o3)cc2s1` the “activity, negative = inhibition” value was inactive: 4.72%.
In the case of `O=C(NN1C(=O)/C(=C/c2ccc(O)cc2)SC1=S)c1cccc(O)c1`, the activity, negative = inhibition is reported as inconclusive: 30.6% [activator].
For `S=C(NCCc1ccc(Cl)cc1)NC1CCCC1`, the “activity, negative = inhibition” value was inactive: -3.91%.
In the case of `O=C(Nc1ccc(Cl)c(S(=O)(=O)N2CCOCC2)c1)C1CCC1`, the “activity, negative = inhibition” value is reported as inactive: -2.99%.
With `Cc1cc2nc3s/c(=C/c4ccc(-c5ccccc5C(=O)O)o4)c(=O)n3c2cc1C` the “activity, negative = inhibition” value was inactive: 2.89%.
With `CCNc1nc(NCC)n2c(SCC(=O)Nc3ccc(F)cc3)nnc2n1` the “activity, negative = inhibition” value was inactive: 2.92%.
With `COc1ccc(-c2nn(-c3ccccc3)cc2/C=C/C(=O)NCCCn2ccnc2)cc1OC` the Potency was inconclusive: 50.1 µM [inhibitor, partial curve, poor fit].
With `Cc1ccc2nc3ccc(N4CCN(C)CC4)nn3c(=O)c2c1` the Potency was inconclusive: 89.1 µM [inhibitor, single point].
`Cc1ccccc1C(=O)N1CC(=O)Nc2ccc(F)cc2C1c1ccccc1` (stereo not given) was tested, and the Potency was inconclusive: 22.4 µM [inhibitor, single point].
For `O=C(COC(=O)CCCNC(=O)c1ccc(Cl)cc1)NCc1ccccc1Cl`, the “activity, negative = inhibition” value was inactive: -4.37%.
With `CN(c1ccccc1)S(=O)(=O)c1ccc(C(=O)Nc2nnc(-c3ccco3)o2)cc1` the “activity, negative = inhibition” value was inactive: -7.3%.
`O=C(NCc1ccco1)/C(=C\c1ccco1)NC(=O)c1ccco1` was tested, and the “activity, negative = inhibition” value was inactive: -2.16%.
With `Cc1nn(C)cc1CN(C)C(=O)CCc1nnc(CCC2CCCCC2)o1` the Potency was inconclusive: 22.4 µM [inhibitor, single point].
With `CCCCN1CC(O)=C(c2nc3ccccc3s2)C1=N` the “activity, negative = inhibition” value was inactive: -3.64%.
`O=C(c1ccco1)N1CCN(S(=O)(=O)c2c(Cl)cccc2Cl)CC1` was tested, and the Potency was inconclusive: 100 µM [inhibitor, single point].
For `COCCn1c(C)cc(C2=NNC(=Nc3ccc(OC)cc3)SC2)c1C`, the Potency was inconclusive: 89.1 µM [inhibitor, single point].
With `CO[C@H]1C=CO[C@@]2(C)Oc3c(C)c(O)c4c(O)c(c(C=NN5CCN(C)CC5)c(O)c4c3C2=O)NC(=O)C(C)=CC=C[C@H](C)[C@H](O)[C@@H](C)[C@@H](O)[C@@H](C)[C@H](OC(C)=O)[C@@H]1C` the Potency was inconclusive: 224 µM [inhibitor, partial curve].
`CC1(c2ccccc2)NC(=O)N(N)C1=O` (stereo not given) was tested, and the Potency was inconclusive: 562 µM [inhibitor, partial curve, poor fit].
For `CC(C)C(=O)Nc1ccc(NC(=O)c2ccc(COc3ccccc3)cc2)cc1`, the Potency was inconclusive: 89.1 µM [inhibitor, single point].
In the case of `CN(C)c1ccc(-n2cccc2)cc1`, the “activity, negative = inhibition” value is reported as inactive: -10%.
For `Cn1cnc([N+](=O)[O-])c1Sc1nc2ccccc2[nH]1`, the “activity, negative = inhibition” value was inactive: 2.99%.
With `CC(=O)Nc1ccc(S(=O)(=O)Oc2ccc(C(=S)N3CCCCC3)cc2)cc1` the “activity, negative = inhibition” value was inactive: 5.74%.
For `C=CCn1c(SCC(=O)NCC2CCCO2)nc2scc(-c3ccccc3)c2c1=O` (stereo not given), the “activity, negative = inhibition” value was inactive: -21.9%.
`Cc1ccc2nc(C)cc(N/N=C/c3ccccc3O)c2c1` was tested, and the Potency was inconclusive: 20 µM [inhibitor, single point].
With `CC1(c2nnc(Cc3ccccc3)o2)CC(c2cccc(Cl)c2)=NO1` (stereo not given) the Potency was inconclusive: 25.1 µM [inhibitor, single point].
With `Cc1ccc(C)c(S(=O)(=O)Nc2ccccc2C(=O)Nc2ccc(S(=O)(=O)Nc3ncccn3)cc2)c1` the “activity, negative = inhibition” value was inactive: -5.94%.
`Cc1cc(NC(=O)C2CC(c3ccc(F)cc3)=NO2)n(-c2ccccc2)n1` (stereo not given) was tested, and the “activity, negative = inhibition” value was inactive: 17.1%.
`Nc1cc(OC(=O)c2cccs2)nn1S(=O)(=O)c1ccc(F)cc1` was tested, and the “activity, negative = inhibition” value was inactive: -30.7%.
For `CCOCCCNC(=O)c1ccc(/C=C2\Oc3ccccc3N(C)C2=O)cc1`, the Potency was inconclusive: 5010 µM [inhibitor, partial curve, poor fit].
In the case of `COCCCN1C(=O)/C(=C\c2cccs2)C(C(=O)OC)=C1C`, the “activity, negative = inhibition” value is reported as inactive: -11.6%.
With `CCC(c1nnnn1CCOC)N(Cc1cc2c(C)cc(C)cc2[nH]c1=O)CC1CCCO1` (stereo not given) the Potency was inconclusive: 501 µM [inhibitor, single point].
In the case of `CN1/C(=C\C(=O)C[n+]2cccc(Br)c2)C(C)(C)c2ccccc21`, the Potency is reported as inconclusive: 89.1 µM [inhibitor, partial curve, poor fit].
`CC(=O)Nc1ccc(S(=O)(=O)N2CCN(Cc3ccccc3[N+](=O)[O-])CC2)cc1` was tested, and the Potency was inconclusive: 39.8 µM [inhibitor, partial curve, poor fit].
In the case of `FC(F)(F)c1cccc(N2CCN(C(=S)NC3CCCC3)CC2)c1`, the “activity, negative = inhibition” value is reported as inactive: -32.9%.
In the case of `CCC1CCCCN1C(=O)CSc1nnc2nc(C)cc(C)n12` (stereo not given), the Potency is reported as inconclusive: 39.8 µM [inhibitor, partial curve].
With `COc1ccc(NC(=O)Cn2nc(Cc3cccnc3)c3ccccc3c2=O)c(OC)c1` the Potency was inconclusive: 22.4 µM [inhibitor, partial curve, poor fit].
In the case of `O=C(N[C@@H](Cc1c[nH]c2ccccc12)C(=O)O)C1CCN(S(=O)(=O)c2cccs2)CC1`, the Potency is reported as inconclusive: 89.1 µM [inhibitor, single point].
With `CC(=O)CCC(=O)N1CCCC(N2CCN(c3cccc(Cl)c3)CC2)C1` (stereo not given) the Potency was inconclusive: 25.1 µM [inhibitor, single point].
In the case of `Nc1ccccc1C(=O)NC1CCCCNC1=O` (stereo not given), the activity, negative = inhibition is reported as inconclusive: -33.7% [inhibitor].
`CC1=C(C)CC(C(=O)Nc2nccs2)C(C(=O)O)C1` (stereo not given) was tested, and the Potency was inconclusive: 12.6 µM [inhibitor, partial curve, poor fit].
`Brc1ccc2c(c1)C(C1=NCCN1)c1ccccc1CS2` (stereo not given) was tested, and the “activity, negative = inhibition” value was inactive: 0.42%.
With `Cn1c(=O)c(Cc2ccccc2)c(O)c2ccccc21` the “activity, negative = inhibition” value was inactive: -8%.
In the case of `COc1ccc(Nc2nc(-c3ccccc3)c(C(=O)Nc3cccnc3)s2)cc1`, the “activity, negative = inhibition” value is reported as inactive: 8.54%.
For `CCCCCn1c(=O)[nH]c2cc(C(=O)N3CCN(c4ccc(C(C)=O)cc4)CC3)ccc2c1=O`, the Potency was inconclusive: 22.4 µM [inhibitor, single point].
`Cc1ccc(CN=c2c([N+](=O)[O-])nn(-c3cccc(C)c3)n2O)cc1` was tested, and the “activity, negative = inhibition” value was inactive: 4.42%.
In the case of `O=[N+]([O-])c1cc([N+](=O)[O-])c2oc(-c3ccccc3)c(Br)c2c1O`, the Potency is reported as inconclusive: 20 µM [inhibitor, single point].
In the case of `COc1cc(NC(=S)NC(=O)c2cccs2)ccc1NC(=O)C(C)C`, the “activity, negative = inhibition” value is reported as inactive: -15.4%.
With `O=C(CSCc1ccc(Cl)cc1)Nc1nccs1` the Potency was inconclusive: 20 µM [inhibitor, single point].
`Cc1ccccc1C(=O)NC1CCN(CC(=O)Nc2ccc3c(c2)OCO3)CC1` was tested, and the Potency was inconclusive: 126 µM [inhibitor, partial curve].
For `O=C(Cc1ccccc1)Nc1cccc(S(=O)(=O)N2CCCCCC2)c1`, the Potency was inconclusive: 100 µM [inhibitor, single point].
`COC(=O)c1ccccc1S(=O)(=O)NNC(=O)C12CC3CC(CC(C3)C1)C2` was tested, and the “activity, negative = inhibition” value was inactive: -0.0507%.
For `Cc1[nH]c2ccccc2c1Cc1n[nH]c(=S)o1`, the “activity, negative = inhibition” value was inactive: -11.5%.
With `O=c1cc(-c2ccc(O)c(O)c2)oc2c(C3O[C@H](CO)[C@@H](O)[C@H](O)[C@H]3O)c(O)cc(O)c12` (stereo not given in full) the “activity, negative = inhibition” value was inactive: -11.3%.
`COc1ccc(-c2c(C)oc3c(CN4CCCC(C)C4)c(O)ccc3c2=O)cc1OC` (stereo not given) was tested, and the Potency was inconclusive: 15.8 µM [inhibitor, single point].
In the case of `Cc1ccc(-c2nc(NCc3ccc(F)cc3)n(S(C)(=O)=O)n2)cc1`, the Potency is reported as inconclusive: 100 µM [inhibitor, single point].
For `NC(=S)NNc1cccc2cccnc12`, the “activity, negative = inhibition” value was inactive: 2.99%.
For `Cc1ccc(Nc2nc(NCCO)c3ccccc3n2)cc1C`, the “activity, negative = inhibition” value was inactive: -8.73%.
With `COC(=O)Cn1c(=NC(=O)c2sc3ccccc3c2Cl)sc2cc(S(N)(=O)=O)ccc21` the “activity, negative = inhibition” value was inactive: -16.9%.
In the case of `CC(C)On1c(SCC(=O)N(C)C)nc2ccccc2c1=O`, the Potency is reported as inconclusive: 31.6 µM [inhibitor, partial curve].
With `Cc1ccc(C(=O)CNc2ccc(Cl)cc2)cc1` the Potency was inconclusive: 31.6 µM [inhibitor, single point].
`COc1ccc(CCNC(=O)CCS(=O)(=O)c2ccc(Br)cc2)cc1OC` was tested, and the Potency was inconclusive: 3160 µM [inhibitor, partial curve, poor fit].
With `COc1cccc(S(=O)(=O)Nc2ccc3c(c2)OCCO3)c1` the “activity, negative = inhibition” value was inactive: -3.6%.
For `COc1cc(N2CCCC2)c(OC)cc1/C=C(/C#N)c1cccc(F)c1`, the “activity, negative = inhibition” value was inactive: 26%.
For `Cc1cc(C)n2[nH]c(=O)c(N=Nc3ccccc3)c2n1`, the “activity, negative = inhibition” value was inactive: -22.7%.
With `Cc1cc(C(=O)N/N=C/C=C/c2ccc3c(c2)OCO3)n[nH]1` the Potency was inconclusive: 14.1 µM [inhibitor, partial curve, poor fit].
`COc1ccc(C(c2nnnn2C2CCCC2)N2CCC(C)CC2)c(OC)c1` (stereo not given) was tested, and the “activity, negative = inhibition” value was inactive: -37.4%.
In the case of `Cc1c(N(C(=O)Nc2ccccc2)C2=NCC(C)S2)c(=O)n(-c2ccccc2)n1C` (stereo not given), the “activity, negative = inhibition” value is reported as inactive: 1.54%.
